# Reference: PubChem BioAssay AID220 (DTP/NCI, 2004)
# The list is a part of this screen's results and no random one: it is rich in T/C values a quarter to a half above the control, in often repeated tests (any T/C) and in doses without a T/C. Other doses and runs of a compound stand elsewhere. T/C gives the treated animals as a percentage of the vehicle group. Schedule codes are those of the source, taken here to give the interval after Q, in days (D) or hours (H), and the number of doses after X. Some T/C values are followed by the survivors on the day toxicity was checked, most often the fifth; without a count, all were alive then. Some entries give survivors of the animals treated and no T/C: the source files T/C as zero there, which appears to mark a toxic dose or a test without result, not a measured value. Survivors were counted at the toxicity check, usually on the fifth day, unless a day is given; later deaths do not show. Some doses were run more than once; their values stand side by side, smallest first.
# Test system: CD8F1 mice, subcutaneous mammary adenocarcinoma, T/C%
# Assay: NCI In Vivo Anticancer Drug Screen. Data for tumor model Mammary Adenocarcinoma CD8F1 (subcutaneous) in CD8F1
# Conditions: higher T/C = larger tumour
# In short: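 Mice carrying transplanted tumors received test compound, and survival or tumor size was recorded. Each value is the treated-group measurement divided by the corresponding measurement in vehicle-dosed controls.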
# [1] = T/C endpoint: median tumor weight (est.), dose: 400.0 mg/kg/injection, schedule: Q07DX005 (ip), vehicle: Klucel (hydroxypropylcellulose) (HPC)
# [2] = T/C endpoint: median tumor weight change, dose: 20.0 mg/kg/injection, schedule: Q01DX001 (ip), vehicle: saline
# [3] = T/C endpoint: median tumor weight change, dose: 500.0 mg/kg/injection, schedule: Q01DX001 (ip), vehicle: saline
# [4] = T/C endpoint: median tumor weight change, dose: 1000.0 mg/kg/injection, schedule: Q01DX001 (ip), vehicle: saline
# [5] = T/C endpoint: median tumor weight change, dose: 2000.0 mg/kg/injection, schedule: Q01DX001 (ip), vehicle: saline
# [6] = T/C endpoint: median tumor weight change, dose: 1000.0 mg/kg/injection, schedule: Q01DX001 (ip), vehicle: saline with Tween-80
# [7] = T/C endpoint: median tumor weight change, dose: 2000.0 mg/kg/injection, schedule: Q01DX001 (ip), vehicle: saline with Tween-80
structure (smiles),measurement,setting,value
O=C1C=C2C(=CCOC2O)O1 (stereo unspecified),survivor count,"T/C endpoint: median tumor weight (est.), dose: 0.75 mg/kg/injection, schedule: Q07DX005 (ip), vehicle: saline",4 of 10 on day 30
same,survivor count,"T/C endpoint: median tumor weight (est.), dose: 6.0 mg/kg/injection, schedule: Q07DX005 (ip), vehicle: saline",1 of 10 on day 30
same,survivor count,"T/C endpoint: median tumor weight (est.), dose: 8.0 mg/kg/injection, schedule: Q07DX005 (ip), vehicle: Klucel (hydroxypropylcellulose) (HPC)",0 of 10 on day 30
same,survivor count,"T/C endpoint: median tumor weight (est.), dose: 12.0 mg/kg/injection, schedule: Q07DX005 (ip), vehicle: saline",0 of 10 on day 30
same,survivor count,"T/C endpoint: median tumor weight (est.), dose: 16.0 mg/kg/injection, schedule: Q07DX005 (ip), vehicle: Klucel (hydroxypropylcellulose) (HPC)",0 of 10 on day 30
same,T/C,"T/C endpoint: median tumor weight change, dose: 2.5 mg/kg/injection, schedule: Q01DX001 (ip), vehicle: Klucel (hydroxypropylcellulose) (HPC), evaluated on day 29",127 % of control
same,survivor count,"T/C endpoint: median tumor weight change, dose: 10.0 mg/kg/injection, schedule: Q01DX001 (ip), vehicle: Klucel (hydroxypropylcellulose) (HPC)",0 of 9 on day 29
same,survivor count,"T/C endpoint: median tumor weight change, dose: 20.0 mg/kg/injection, schedule: Q01DX001 (ip), vehicle: Klucel (hydroxypropylcellulose) (HPC)",0 of 9 on day 29
same,survivor count,"T/C endpoint: median tumor weight change, dose: 40.0 mg/kg/injection, schedule: Q01DX001 (ip), vehicle: Klucel (hydroxypropylcellulose) (HPC)",0 of 9 on day 29
Oc1c(Cl)cc(C(c2cc(Cl)c(O)c(Cl)c2)C(c2cc(Cl)c(O)c(Cl)c2)c2cc(Cl)c(O)c(Cl)c2)cc1Cl,survivor count,[1],3 of 10 on day 30
CCC1CC2CN(CCc3c([nH]c4ccccc34)C(C(=O)OC)(c3cc4c(cc3OC)N(C)C3C(O)(C(=O)OC)C(OC(C)=O)C5(CC)C=CCN6CCC43C65)C2)C1 (stereo unspecified),T/C,"T/C endpoint: median tumor weight change, dose: 2.5 mg/kg/injection, schedule: Q01DX001 (ip), vehicle: saline, evaluated on day 28",135 % of control
same,T/C,"T/C endpoint: median tumor weight change, dose: 10.0 mg/kg/injection, schedule: Q01DX001 (ip), vehicle: saline, evaluated on day 28",130 % of control
same,survivor count,[2],5 of 10 on day 39
same,survivor count,"T/C endpoint: median tumor weight change, dose: 40.0 mg/kg/injection, schedule: Q01DX001 (ip), vehicle: saline",1 of 10 on day 39
same,survivor count,"T/C endpoint: median tumor weight change, dose: 80.0 mg/kg/injection, schedule: Q01DX001 (ip), vehicle: saline",0 of 10 on day 39
CCCCNC(C)[C@]1(O)Cc2c(O)c3c(c(O)c2[C@@H](OC2CC(N)C(O)C(C)O2)C1)C(=O)c1c(OC)cccc1C3=O (stereo partly specified),T/C,"T/C endpoint: median tumor weight (est.), dose: 1.78 mg/kg/injection, schedule: Q07DX005 (ip), vehicle: water, evaluated on day 30",141 % of control
same,survivor count,"T/C endpoint: median tumor weight (est.), dose: 9.0 mg/kg/injection, schedule: Q07DX005 (ip), vehicle: water",5 of 10
C/C=C(\C)c1cc(=O)c2c(C)cc3c(c2o1)C(=O)c1c(O)c(C2CC(C)(N(C)C)C(O)C(C)O2)cc(C2CC(N(C)C)C(O)C(C)O2)c1C3=O (stereo unspecified),T/C,"T/C endpoint: median tumor weight change, dose: 0.62 mg/kg/injection, schedule: Q01DX001 (ip), vehicle: saline, evaluated on day 32",142 % of control
same,survivor count,"T/C endpoint: median tumor weight change, dose: 10.0 mg/kg/injection, schedule: Q01DX001 (ip), vehicle: saline",3 of 10 on day 28
same,survivor count,"T/C endpoint: median tumor weight change, dose: 10.0 mg/kg/injection, schedule: Q01DX001 (ip), vehicle: suspension in saline",0 of 10 on day 28
same,survivor count,[2],0 of 10 on day 32 and 4 of 10 on day 28
same,survivor count,"T/C endpoint: median tumor weight change, dose: 20.0 mg/kg/injection, schedule: Q01DX001 (ip), vehicle: suspension in saline",0 of 10 on day 28
CC1=C(C)C(=O)O[C@@H]([C@](C)(O)[C@]2(O)CC[C@@]3(O)[C@@H]4C[C@H]5O[C@]56[C@@H](O)C=CC(=O)[C@]6(C)[C@H]4CC[C@]23C)C1,survivor count,"T/C endpoint: median tumor weight change, dose: 150.0 mg/kg/injection, schedule: Q01DX001 (ip), vehicle: saline",1 of 10 on day 29
same,survivor count,"T/C endpoint: median tumor weight change, dose: 300.0 mg/kg/injection, schedule: Q01DX001 (ip), vehicle: saline",0 of 10 on day 29
C#C[C@]1(O)CC[C@H]2[C@@H]3CCc4cc(O)ccc4[C@H]3CC[C@@]21C,survivor count,"T/C endpoint: median tumor weight change, dose: 900.0 mg/kg/injection, schedule: Q01DX001 (ip), vehicle: saline with Tween-80",0 of 10 on day 32
same,survivor count,"T/C endpoint: median tumor weight change, dose: 1800.0 mg/kg/injection, schedule: Q01DX001 (ip), vehicle: saline with Tween-80",0 of 10 on day 32
same,survivor count,"T/C endpoint: median tumor weight change, dose: 3600.0 mg/kg/injection, schedule: Q01DX001 (ip), vehicle: saline with Tween-80",0 of 10 on day 32
c1csc(C[N+]23CN4CN(CN(C4)C2)C3)c1,T/C,"T/C endpoint: median tumor weight change, dose: 62.5 mg/kg/injection, schedule: Q01DX001 (ip), vehicle: saline, evaluated on day 33",148 % of control
same,T/C,"T/C endpoint: median tumor weight change, dose: 125.0 mg/kg/injection, schedule: Q01DX001 (ip), vehicle: saline, evaluated on day 33",130 % of control
same,survivor count,[3],0 of 10 on day 33
same,survivor count,[4],1 of 10 on day 33
COc1cc2c(ccc3c4cc(OC)c(OC)cc4c[n+](C)c23)cc1O,T/C,"T/C endpoint: median tumor weight change, dose: 125.0 mg/kg/injection, schedule: Q01DX001 (ip), vehicle: saline, evaluated on day 31",137 % of control [9 of 10 alive on day 31]
same,T/C,"T/C endpoint: median tumor weight change, dose: 500.0 mg/kg/injection, schedule: Q01DX001 (ip), vehicle: saline, evaluated on day 31",134 % of control [9 of 10 alive on day 31]
COc1ccc2c(NCCCCCCCCNc3c4ccccc4nc4cc(OC)ccc34)c3ccccc3nc2c1,T/C,"T/C endpoint: median tumor weight (est.), dose: 1.87 mg/kg/injection, schedule: Q07DX005 (ip), vehicle: other, evaluated on day 30",135 % of control
CC(=O)OC1=NC(C)c2c1cc(OC(C)=O)[nH]c2=O (stereo unspecified),survivor count,"T/C endpoint: median tumor weight (est.), dose: 100.0 mg/kg/injection, schedule: Q07DX005 (ip), vehicle: Klucel (hydroxypropylcellulose) (HPC)",6 of 10 on day 30
same,survivor count,"T/C endpoint: median tumor weight (est.), dose: 200.0 mg/kg/injection, schedule: Q07DX005 (ip), vehicle: Klucel (hydroxypropylcellulose) (HPC)",1 of 10 on day 30
same,survivor count,[1],0 of 10 on day 30
CCC(C(=O)O)C(=O)O.[NH-]CC1CCCC[N-]1.[Pt+2],survivor count,"T/C endpoint: median tumor weight change, dose: 250.0 mg/kg/injection, schedule: Q01DX001 (ip), vehicle: saline",0 of 10 on day 33
same,survivor count,[3],0 of 10 on day 33
same,survivor count,[4],0 of 10 on day 33
same,survivor count,[5],1 of 10 on day 33
[O-][n+]1c(CN2CCCCC2)nc2cccc3c2c1-c1ccccc1-3,survivor count,[6],3 of 10 on day 35
CCCCCCOC(CN(C)C)C(Cl)(Cl)Cl (stereo unspecified),survivor count,"T/C endpoint: median tumor weight change, dose: 800.0 mg/kg/injection, schedule: Q01DX001 (ip), vehicle: saline with Tween-80",4 of 8 on day 29
same,survivor count,"T/C endpoint: median tumor weight change, dose: 1600.0 mg/kg/injection, schedule: Q01DX001 (ip), vehicle: saline with Tween-80",5 of 8 on day 29
same,survivor count,[7],0 of 10 on day 29
same,survivor count,"T/C endpoint: median tumor weight change, dose: 4000.0 mg/kg/injection, schedule: Q01DX001 (ip), vehicle: saline with Tween-80",0 of 10 on day 29
C[Si](C)(C)O/C=C1/CCOC1=O,T/C,"T/C endpoint: median tumor weight change, dose: 250.0 mg/kg/injection, schedule: Q01DX001 (ip), vehicle: saline, evaluated on day 27",142 % of control
same,survivor count,[5],0 of 10 on day 27
O=C1c2ccccc2C(=O)c2c(NCCNCCO)ccc(O)c21,survivor count,"T/C endpoint: median tumor weight change, dose: 400.0 mg/kg/injection, schedule: Q01DX001 (ip), vehicle: saline with Tween-80",4 of 10 on day 31
C=C1C(=O)C23[C@H](O)C1CC[C@H]2[C@]12COC3(O)[C@@H](O)[C@@H]1C(C)(C)CC[C@@H]2O,survivor count,"T/C endpoint: median tumor weight (est.), dose: 35.0 mg/kg/injection, schedule: Q07DX005 (ip), vehicle: Klucel (hydroxypropylcellulose) (HPC)",5 of 10 on day 30
same,survivor count,"T/C endpoint: median tumor weight (est.), dose: 70.0 mg/kg/injection, schedule: Q07DX005 (ip), vehicle: Klucel (hydroxypropylcellulose) (HPC)",0 of 10 on day 30
same,survivor count,"T/C endpoint: median tumor weight change, dose: 62.5 mg/kg/injection, schedule: Q01DX001 (ip), vehicle: saline with Tween-80",0 of 10 on day 30
same,survivor count,"T/C endpoint: median tumor weight change, dose: 125.0 mg/kg/injection, schedule: Q01DX001 (ip), vehicle: saline with Tween-80",0 of 10 on day 30
CC(/C=C/c1ccccc1)=Nc1ccccc1,survivor count,[6],1 of 10 on day 28
same,survivor count,[7],1 of 10 on day 28
COC1C(O)CC(OC2C(C)OC(Oc3cc(O)c4c(O)c5c(cc4c3)C[C@@H]([C@H](OC)C(=O)[C@@H](O)[C@@H](C)O)[C@H](OC3CC(OC4CC(OC6CC(C)(O)C(O)C(C)O6)C(O)C(C)O4)C(O)C(C)O3)C5=O)CC2OC(C)=O)OC1C (stereo partly specified),T/C,"T/C endpoint: median tumor weight (est.), dose: 37.5 mg/kg/injection, schedule: Q07DX005 (ip), vehicle: suspension in saline, evaluated on day 32",149 % of control
